Patent US4656250A (Toyo Jozo Kabushiki Kaisha, priority 1983, dated 1987)
Non-standard residues stand in square brackets, D forms with d. *: point of attachment. Tos = Cc1ccc(S(=O)(=O)*)cc1; ClZ = O=C(OCc1ccccc1Cl)*; Nle = CCCC[C@H](N)C(=O)O; Boc = CC(C)(C)OC(=O)*; OBn = c1ccc(CO*)cc1; Bn = c1ccc(C*)cc1

Test: general procedure: solution-phase peptide synthesis; WSC/HOBt
Conditions: coupling step

Going from “Boc-Asp(OBzl)-Val-His-Asn-Tyr(Bzl-Cl2)-NH2” to “Boc-Gln-Asp(OBzl)-Val-His-Asn-Tyr(Bzl-Cl2)-NH2”, the step yield rises from 89.8% to 94.5%.

Compared with “Boc-Glu(OBzl)-Arg(Tos)-Val-Glu(OBzl)-OPAC”, Boc-Glu(OBzl)-Ile-Gln-Leu-OPAC is higher in step yield: 76.7% for the first, 97.1% for the second.

First: Boc-HNLG-OBn
Second: Boc-His(Tos)-Leu-Asn-Ser(Bzl)-OPAC
The step yield of the first is lower: 74.8% for the first, 85.1% for the second.

Going from Boc-LR(Tos)K(ClZ)K(ClZ)L-OEt to Boc-Lys(Z-Cl)-His-Leu-Asn-Ser(Bzl)-OPAC, the step yield falls from 90.5% to 9.18%.

First: Boc-Nle-Glu(OBzl)-Arg(Tos)-Val-Glu(OBzl)-OPAC
Second: Boc-Ser(Bzl)-Glu(OBzl)-Ile-Gln-Leu-OPAC
The step yield of the first is lower: 78% for the first, 94.7% for the second.

First: Boc-Ser(Bzl)-Val-Ser(Bzl)-Glu(OBzl)-Ile-Gln-Leu-OPAC
Second: Boc-Trp-Leu-Arg(Tos)-Lys(Z-CI)-Lys(Z-Cl)-Leu-Gln-Asp(OBzl)-Val-His-Asn-Tyr (Bzl-Cl2)-NH2
The step yield of the first is lower: 92.3% for the first, 99.1% for the second.

Going from Boc-Val-His-Asn-Tyr(Bzl-Cl2)-NH2 to “Boc-Val-Ser(Bzl)-Glu(OBzl)-Ile-Gln-Leu-OPAC”, the step yield falls from 103.2% to 96.8%.

Going from Boc-WLR(Tos)K(ClZ)K(ClZ)L-OEt to Boc-[Nle]HNLG-OBn, the step yield falls from 81.2% to 42.9%.

Same assay, conditions: late stage modification step

Going from Boc-Lys(Z-CL)-His-Leu-Asn-Ser(Bzl)-OH to Boc-S(Bn)VS(Bn)E(OBn)IQL-OH, the step yield rises from 95.2% to 97.4%.

First: Boc-WLR(Tos)K(ClZ)K(ClZ)L-OH
Second: Boc-[Nle]HNLG-OH
The step yield of the first is higher: 101.1% for the first, 71.1% for the second.
